Reference: PubChem BioAssay AID434947 (Broad Institute, 2010)
The whole screen tested about 2,200 compounds, of which about 15 (0.7%) were called active.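 Rule for the calls: active = fitted half-maximal concentration for loss of luminescence signal no more than a set limit of log units above the top tested concentration; inconclusive = flat fit with 30 to 70% signal loss, or invalid fit; inactive = half-maximal concentration above that set limit.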 This is one part of the list.

test: ADP-Glo luciferase signal interference – biochemical, luminescence, cell-free, homogeneous, artefact control for GSK3beta inhibitor project, dose response (AID 434947); conditions: Cell-free ADP-Glo reagents, 5 uM ADP;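 note: kinase-free counter screen of ADP-Glo detection reagents for GSK3beta hits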

EC50, inactive:
CN(Cc1c(C(=O)N/N=C/c2cccc(O)c2)nnn1-c1nonc1N)C1CCCCC1 > 30 µM, COc1cccc(Nc2ncc(C#N)c(N)n2)c1 > 10 µM, COc1cccc(CNC(=O)C2CCN(S(=O)(=O)c3ccc(-n4cnnn4)cc3)CC2)c1 > 30 µM, CCCn1nc(NC(=O)c2cccs2)c2cc3cc(OC)ccc3nc21 > 30 µM, CCCN(CCC)Cc1c(C(=O)N/N=C/c2ccoc2)nnn1-c1nonc1N > 30 µM, CCCOC(=O)c1ccc(O)cc1 > 30 µM, O=C(NNC(=O)C1CC1)c1cc2cc3ccccc3nc2s1 > 30 µM, Cc1ccc(-c2oc3ccccc3c(=O)c2O)cc1 > 30 µM, CCOC(=O)c1cnc2ccc(OC)cc2c1Nc1ccc2c(c1)OCCO2 > 30 µM, CC1(C)CC(=O)C=C(Nc2cccc(O)c2)C1 > 30 µM, Cc1nn(CC(=O)NCCCN2CCCCC2)c(=O)c2cc(-c3ccccc3)nn12 > 30 µM, COC(=O)C(C)Sc1ccc2nnc(-c3ccc(F)cc3)n2n1 (stereo not drawn) > 30 µM, CCC(NC(=S)NC1CCCCC1)c1ccccc1 (stereo not drawn) > 30 µM, Oc1ccccc1/C=N/Nc1nn[nH]n1 > 30 µM, O=C(Nc1cccc(Cl)c1)c1ccc(NCCCN2CCOCC2)c([N+](=O)[O-])c1 > 30 µM, O=C(Nc1cccc2c1C(=O)NC2=O)c1ccccc1[N+](=O)[O-] > 30 µM, CC(O)c1cccc(NC2=CC(=O)CC(C)(C)C2)c1 (stereo not drawn) > 30 µM, Cc1cccc(NC(=O)C(C)n2cc([N+](=O)[O-])cn2)n1 (stereo not drawn) > 30 µM, COc1cc(NC(=O)COC(=O)CCc2cc(OC)c(OC)c(OC)c2)cc(OC)c1 > 30 µM, CCOc1ccccc1CNC(=O)CCn1ccc2cc(S(=O)(=O)N3CCCCC3)ccc21 > 30 µM, Fc1ccc(-c2nnc(SCc3cccnc3)o2)cc1 > 30 µM, CN(Cc1ccccc1)Cc1nc2c([nH]1)c(=O)n(C)c(=O)n2C > 30 µM, C=CCNC(=O)c1onc(CSc2cccc(OC)c2)c1C(=O)NCC=C > 30 µM, O=S(=O)(c1ccc(F)cc1)c1nc(-c2ccco2)oc1Nc1ccccc1 > 30 µM, CC(C)N(C(=O)Cc1ccccc1[N+](=O)[O-])C(C)C > 30 µM, CCOC(=O)CSc1ccc2nnc(-c3ccccc3)n2n1 > 30 µM, Nc1nc(Nc2cccc(F)c2)nc(N2CCOCC2)c1[N+](=O)[O-] > 30 µM, CCc1nn(CC(=O)NCCCc2ccccc2)c(=O)c2cc3c(OC)cccc3n12 > 30 µM, O=C(Nc1ccccc1)Nc1ccncc1 > 30 µM, S=C1Nc2cc(Cl)ccc2Sc2ccccc21 > 30 µM, COc1ccc(C2CC(=O)C3=C(C2)Nc2ncnn2C3c2ccccc2C)cc1 (stereo not drawn) > 30 µM, CCC(=O)c1c(CC)c2n3c1CC[C@H]3CCC2 > 30 µM, CC(C)=CCc1c(O)cc(O)c2c(=O)c3c(CC=C(C)C)c(O)ccc3oc12 > 30 µM, O=c1cc(-c2ccccc2Cl)oc2c(Br)ccc(O)c12 > 30 µM, COc1ccc(-c2nn(-c3ccccc3)cc2/C=N/NC(=O)c2ccc(Br)o2)cc1 > 30 µM, Nc1c(C(=O)c2ccccc2)sc(Nc2ccccc2)c1S(=O)(=O)c1ccccc1 > 30 µM, Cc1ccc(C(=O)Nc2ccc(S(=O)(=O)NCc3ccco3)cc2)cc1 > 30 µM, Nc1nc(NCCOCCO)nc(NC2CCCCC2)c1[N+](=O)[O-] > 30 µM, CCN1CCCC1CNC(=O)c1ccc2c(c1)NC(=O)/C(=C\c1ccc(OC)c(OC)c1)S2 (stereo not drawn) > 30 µM, Cc1[nH]nc2c1C(c1cccs1)C1=C(CC(C)(C)CC1=O)N2 (stereo not drawn) > 30 µM, COc1ccccc1Oc1coc2c(CN(C)C)c(O)ccc2c1=O > 30 µM, CCOc1ccccc1/C=N/NC(=O)c1nnn(-c2nonc2N)c1CN1CCC(C)CC1 > 30 µM, Nc1nc(Nc2ccccc2)nc(N2CCOCC2)c1[N+](=O)[O-] > 30 µM, COCCn1c(SCC(=O)Nc2ccc(S(=O)(=O)N(C)C)cc2)nc2ccccc21 > 30 µM, COc1cccc(N(C(=O)CS(=O)CC(=O)Nc2ccc(F)cc2)C(C(=O)NC2CCCCC2)c2cccs2)c1 (stereo not drawn) > 30 µM, COCCN(CCOC)Cc1c(O)ccc2c1O/C(=C\c1ccco1)C2=O > 30 µM, O=C(O)c1ccccc1Nc1ccnc(Cl)n1 > 30 µM, CCCCn1nc(NC(=O)COC)c2cc3cc(OC)ccc3nc21 > 30 µM, COCCCNc1nc(N)c([N+](=O)[O-])c(Nc2ccccc2OC)n1 > 30 µM, Cc1ncc(CN2CCCC(C(=O)Nc3ccc(-c4cccc(F)c4)cc3)C2)cn1 (stereo not drawn) > 30 µM, CC(C(=O)Nc1nc2ccccc2s1)n1cc([N+](=O)[O-])cn1 (stereo not drawn) > 30 µM, CCOc1cccc(C(=O)Nc2cccc(-c3nc4ncccc4o3)c2C)c1 > 30 µM, COc1ccccc1Nc1nc(NCC(C)C)nc(N)c1[N+](=O)[O-] > 30 µM, COc1ccc(Nc2nc(N)c([N+](=O)[O-])c(N3CCOCC3)n2)cc1 > 30 µM, COc1ccc2c(CC(=O)Nc3ncc(C)s3)coc2c1 > 30 µM, CN1CCc2c(sc3c2c(=O)n(-c2ccccc2)c2n[nH]c(=S)n32)C1 > 30 µM, CCOc1ccc2nc(N3CCC(C(=O)N4CCN(C5CCCCC5)CC4)CC3)sc2c1 > 30 µM, O=c1c(O)c(-c2ccc(O)cc2)oc2cc(O)cc(O)c12 > 30 µM, CN(C)Cc1c(C(=O)N/N=C/c2ccccc2OCc2c(F)cccc2Cl)nnn1-c1nonc1N > 30 µM, COc1ccc(C(=O)N/C(=C\c2ccco2)C(=O)NCCN2CCOCC2)cc1 > 30 µM, CN(CCO)S(=O)(=O)c1ccc2c(c1)C(=NNC(N)=O)c1cc(S(=O)(=O)N(C)CCO)ccc1-2 > 30 µM, Nc1ncnc(NC2CCS(=O)(=O)C2)c1[N+](=O)[O-] (stereo not drawn) > 30 µM, COC(=O)c1c(C)oc2ccc(OC(=O)c3cccs3)cc12 > 30 µM, COc1ccc(CC(=O)OCC(=O)Nc2ccc(Cl)cn2)cc1 > 30 µM, CCCc1c(NC(=O)Nc2ccc(F)cc2)cnn1-c1ccccc1 > 30 µM, CCOC(=O)c1ccc(NC(=O)Nc2ccccn2)cc1 > 30 µM, COC(=O)C(C)Oc1cc(OC(C)C(=O)OC)c2c(-c3ccccc3)cc(=O)oc2c1 (stereo not drawn) > 30 µM, CC1(C)N=C(N)N=C(N)N1c1ccc(Oc2ccc(Cl)cc2)c(Cl)c1 > 30 µM, COc1ccc(CNC(=O)CN(Cc2ccccc2)C(=O)CCC(=O)Nc2ccccn2)cc1 > 30 µM, Nc1nc(NCCCN2CCOCC2)nc(NCc2ccccc2)c1[N+](=O)[O-] > 30 µM, Cn1c(SCC(=O)Nc2ccc(Br)cn2)nnc1C1CC1 > 30 µM, CC(=O)c1ccc(Cc2cnc(N)s2)cc1 > 30 µM, Nc1nc(NCC(=O)O)nc(NC2CCCCC2)c1[N+](=O)[O-] > 30 µM, O=C1CC(N2CCC(c3nc4ccccc4s3)CC2)C(=O)N1 (stereo not drawn) > 30 µM, Cc1ccc(C(OCCN(C)C)c2cccc(C(F)(F)F)c2)cc1 (stereo not drawn) > 30 µM, Cc1ccnc(NC(=O)C2CC(=O)N(c3ccc4c(c3)OCCO4)C2)c1 (stereo not drawn) > 30 µM, CN(C)N=Nc1ccc(S(N)(=O)=O)cc1 > 30 µM, O=C(N/N=C/c1ccc(O)c(O)c1)N/N=C/c1ccc(O)c(O)c1 > 30 µM, CCN1CCN(C(=O)c2cc3cc4cc(OC)ccc4nc3s2)CC1 > 30 µM, Fc1ccc(CSc2nnc(-c3ccncc3)o2)cc1 > 30 µM, O=C(Cc1ccc(Br)cc1)Nc1ncc([N+](=O)[O-])s1 > 30 µM, O=C(NCCc1ccccc1)c1cccc(Br)c1 > 30 µM, O=C(Nc1ccccn1)Nc1ccccc1[N+](=O)[O-] > 30 µM, O=C(O)c1cccc(CSc2nnc(-c3cccnc3)o2)c1 > 30 µM, N#CC1=C2SCN(Cc3ccccc3)CN2C(=O)CC1c1cccs1 (stereo not drawn) > 30 µM, O=C(CCS(=O)(=O)c1ccccc1)Nc1cccc2c1C(=O)NC2=O > 30 µM, N#Cc1c(-c2cccs2)nc(SCC(=O)c2ccc(Br)cc2)[nH]c1=O > 30 µM, COc1cccc(C(N)=O)c1 > 30 µM, COc1ccc(C2C(C(C)=O)=C(O)C(=O)N2c2nccs2)c(OC)c1 (stereo not drawn) > 30 µM, COc1ccc(-c2nn(CCC#N)cc2/C=N/O)cc1OC > 30 µM, N#Cc1ccccc1NC(=O)CSc1nnc(-c2ccncc2)o1 > 30 µM, COc1ccc(Cl)cc1-n1c(C)ccc1C > 30 µM, Cc1ccc(S(=O)(=O)N(C)C)cc1NC(=O)c1ccc(OC(F)(F)F)cc1 > 30 µM
